“And” between values parts separate entries of the source, which are not always exact repeats. Equal values may be shown once. The list shows a part of the results. Repeats in this data set agree poorly, so a single value says little.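 HEK293T cells were given each compound shortly before transfection with a reporter in which red mCherry is followed by the SARS-CoV-2 frameshift element and then GFP in the −1 frame, so GFP appears only after frameshifting.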

The assay deals with SARS-CoV-2 -1 PRF reporter mCherry-FSE-GFP(-1). Briefly: mCherry (red) intensity as percent of control; higher = higher upstream reporter expression. The note with it: 10 µM; 24 h; HEK293T.
For the compound `C[C@@H](O)[C@H](N)C(=O)O` [threonine], the mCherry was 105%. Take `O=C(Nc1cccc2c(=O)cc(-c3nnn[nH]3)oc12)c1ccc(OCCCCc2ccccc2)cc1` [Pranlukast]: the mCherry was 85.4% and 105%.

In turn, `Clc1ccc(OCC2=NCCc3ccccc32)cc1` [famotine] returned a mCherry of 64.2%.

Take `Nc1nc2c(c(=O)[nH]1)C[C@@H](CCc1ccc(C(=O)N[C@@H](CCC(=O)O)C(=O)O)cc1)CN2` [lometrexol]: the mCherry came out at 63.3%. Under `CN(CC1(C)CCCO1)S(=O)(=O)c1ccc(Cl)c(S(N)(=O)=O)c1` (stereo not given) [mefruside] stands 65.2%. The figure for `N[C@@H](Cc1cc(I)c(Oc2cc(I)c(O)c(I)c2)c(I)c1)C(=O)O` [L-thyroxine] is 99%; for `COC(=O)Nc1nc2cc(C(=O)c3ccccc3)ccc2[nH]1` [mebendazole] it is 106%. Under `C[n+]1ccccc1/C=N/O` stands 93.5%. For `c1ccc2c(CC3=NCCN3)cccc2c1` [naphazoline], the mCherry was 92.3% and 78.4%.

`CC1(C)S[C@@H]2[C@H](NC(=O)[C@H](NC(=O)N3CCNC3=O)c3ccccc3)C(=O)N2[C@H]1C(=O)O` [azlocillin] displayed a mCherry of 97.2%. The figure for `NC1=NCC2c3ccccc3Cc3ccccc3N12` (stereo not given) [epinastine] is 105%; for `O=C(O)c1ccc[n+]([O-])c1` it is 119%. The figure for `CC(C)C[C@H](NC(=O)[C@@H](O)[C@H](N)Cc1ccccc1)C(=O)O` [ubenimex] is 104%; for `C[C@]12C=CC(=O)C=C1CC[C@@H]1[C@@H]2[C@@H](O)C[C@@]2(C)[C@H]1CC[C@]2(O)C(=O)COC(=O)CCC(=O)O` it is 97.7%; for `O=S(=O)(O)CCCS(=O)(=O)O` it is 105%.

These data come from the supplement of paper PMC8256030.
